Data taken from paper PMC12040169 (PLOS Biology, 2025).
The list shows a part of the results.

System: T1, CTL2-GFP (C. trachomatis L2/434/Bu, GFP-expressing)
T1 construct: L2/434/Bu, GFP-expressing
Parameters: species or system HeLa; Intracellular C. trachomatis growth in HeLa cells, bulk GFP fluorescence relative to DMSO
Conditions: bulk GFP, single well; 28.5 h, 10 µM; inhibitor

Row | Structure (SMILES) | % of control remaining [%]
1 | Cc1nc(-c2ccccc2)sc1CNC(=O)/C=C/c1c[nH]cn1 [CBK092368] | 138.964
2 | Cc1ccccc1Cc1cccc(C2CCN(C(=O)c3ccc(F)cc3)CC2)n1 [CBK286140] | 111.131
3 | Cc1nc(C2CCCN(C(=O)CCc3ccno3)C2)c2sccn12 (stereo not drawn) [CBK285237] | 137.026
4 | O=C(Nc1ccc(N2CCOCC2)cc1)c1ccc(-n2cnnc2)cc1Cl [CBK269889] | 123.551
5 | O=C(Nc1cccnc1N1CCNCC1)c1ccc(-c2cccc(C(F)(F)F)c2)o1 [CBK034119T] | 100
6 | CC(=O)N1c2ccc(-c3cn4ccc(C)cc4n3)cc2CC1C (stereo not drawn) [CBK285191] | 92.0985
7 | O=C(O)C1CC(O)CN1S(=O)(=O)c1ccc(Cl)cc1 (stereo not drawn) [CBK266106] | 98.4764
8 | CCN(CC)CCOC(=O)C1(c2ccccc2)CCOc2ccccc21 (stereo not drawn) [CBK009850C] | 101.063
9 | CC(=O)OCC(=O)Nc1ccc2cc(Br)cnc2n1 [CBK063311] | 95.7529
10 | CCn1cnc2cc(NC(=O)CC(C)n3nc(C)cc3C)ccc21 (stereo not drawn) [CBK281401] | 132.641
11 | CC(=O)Nc1cccc(CN(CCCO)C2CCc3ccccc32)c1 (stereo not drawn) [CBK304011] | 86.8702
12 | Cn1ncc(N2CCC(CNC(=O)COc3ccc(Cl)cc3)C2)cc1=O (stereo not drawn) [CBK306517] | 119.868
13 | CC1CN(c2cc(CNc3nc4ccccn4c3C#N)ccn2)CCO1 (stereo not drawn) [CBK306423] | 98.8997
14 | CN(C)Cc1cc(C[C@@H]2C[C@H](NS(=O)(=O)c3ccccc3)C2(C)C)no1 [CBK289307] | 117.589
15 | c1ccc([C@@H]2CN(CC3CCOC3)C[C@H]2c2cc[nH]n2)cc1 (stereo partly drawn) [CBK285163] | 79.3613
16 | O=C(Cn1cccnc1=O)NC(c1ccc2c(c1)CCO2)C1CC(O)C1 (stereo not drawn) [CBK306595] | 144.431
17 | CCn1cc(C2CN(S(=O)(=O)c3cc(C)c(OC)cc3C)CCO2)cn1 (stereo not drawn) [CBK304225] | 83.9705
18 | CCCn1c(=O)c(C(=O)NCCN(CC)CC)c(O)c2cc(Br)ccc21 [CBK291118] | 93.2956
19 | N=C1OC2CSCC2N1C(=O)Cc1ccccc1Cl (stereo not drawn) [CBK284516] | 147.666
20 | OC(CN1CCC(O)(c2ccccc2F)CC1)c1ccc(F)cc1 (stereo not drawn) [CBK282492] | 145.916
21 | CC(C)C1OC(NCCN2CCOCC2)=NC1=O (stereo not drawn) [CBK074097T] | 141.185
22 | Cc1ccc2cc(CN(CC(C)C)S(C)(=O)=O)c(O)nc2c1 [CBK269593] | 84.4681
23 | CN1CCC(C(=O)N2CCCc3ccccc32)CC1 [CBK200260] | 105.47
24 | N#Cc1cccc(-c2cnc(N)c(-c3ccc(O)cc3)n2)c1 [CBK115630] | 123.125
25 | O=C(COc1cccc2ccccc12)N/N=C/c1ccco1 [CBK086853] | 101.097
26 | CN(C)CCN(C)C(=O)c1ccc(-c2cccc(OC(F)(F)F)c2)nc1N(C)C [CBK106081] | 172.982

Row | Structure (SMILES) | % of control remaining [%]
27 | c1csc(CSc2nnc3sc4ccccc4n23)c1 [CBK266291] | 149.633
28 | CC(C)(C)c1cc(C(=O)N2CCN(c3ncccn3)CC2)n(Cc2ccc(Cl)cc2Cl)n1 [CBK107294] | 99.2924
29 | Cc1cccc(OCCOc2ccc(Br)cc2/C=C2\SC(=N)NC2=O)c1 [CBK263958] | 112.375
30 | CCNC(=O)[C@H]1CN(Cc2ccccc2)C[C@@H]1C(=O)c1ccccc1 [CBK285265] | 119.608
31 | Cn1c(SCC(=O)N2CCN(Cc3ccccc3)CC2)nnc1-c1cccc([N+](=O)[O-])c1 [CBK267154] | 153.886
32 | O=C(c1ccc(F)cc1)C1CCN(C(=O)c2cccnc2NCc2ccc3c(c2)OCO3)CC1 [CBK160114] | 84.6524
33 | CCn1c(C)cc2cc(NS(=O)(=O)c3cn(C)nc3C)ccc21 [CBK282789] | 119.711
34 | COc1cc(C#N)ccc1Oc1ccc([N+](=O)[O-])cn1 [CBK002569] | 102.279
35 | CN(Cc1nccs1)C(=O)NC1CCN(Cc2cccc(O)c2)CC1 [CBK307657] | 127.817
36 | O=C(Nc1ccc(Cl)cc1C(=O)O)c1ccccc1Cl [CBK000171] | 107.981
37 | CCc1nc(CC(=O)NC(C)C(O)c2ccc(F)cc2)cs1 (stereo not drawn) [CBK304003] | 92.4574
38 | CCN1C(=O)C(F)(CC)C(=O)c2ccccc21 (stereo not drawn) [CBK098854] | 161.316
39 | CCCNC(=O)Cn1nc(CC)n2c(cc3sccc32)c1=O [CBK284030] | 126.17
40 | NC(=O)CN1CCN(CCc2ccccc2)CC1 [CBK126429] | 117.85
41 | CC1(C)CC(NC(=O)C2CCN(S(C)(=O)=O)CC2)c2ccccc2O1 (stereo not drawn) [CBK304404] | 135.461
42 | CCC(CN1CCN(C)CC1)NC(=O)C1(c2ccc(F)cc2)CC1 (stereo not drawn) [CBK282785] | 138.425
43 | FC(F)(F)c1cccc(Sc2cccc3ccccc23)n1 [CBK091449] | 91.0397
44 | Cc1nn(CC(=O)N(C)Cc2cnccn2)c(=O)c2ccccc12 [CBK304356] | 149.208
45 | Nc1ncc(-c2cccc(F)c2)nc1-c1ccc(C(=O)N2CCOCC2)cc1 [CBK064131] | 156.846
46 | O=[N+]([O-])c1ccc(C(O)CNC(=S)Nc2ccccc2)cc1 (stereo not drawn) [CBK261086] | 81.9815
47 | O=C(NCc1ccccn1)c1ccc(-n2ccnc2)c(-n2cccc2)c1 [CBK285347] | 137.684
48 | O=C(CC1CS(=O)(=O)CC1CC(=O)Nc1cccc(Cl)c1Cl)Nc1cccc(Cl)c1Cl (stereo not drawn) [CBK262404] | 129.609
49 | O=C(NCc1n[nH]c(=O)c2ccccc12)Nc1ccc(F)cc1 [CBK287744] | 99.8443
50 | COc1ccc(-n2cc(-c3ccc(C(F)(F)F)cc3)nn2)cc1OC [CBK112952] | 129.807
51 | c1ccc2cc(-c3cn4ccnc4c(Nc4ccc(N5CCOCC5)cc4)n3)ccc2c1 [CBK066359] | 92.8116

Filtered by structure: the entries above containing a thiophene ring, fused or not
Row | Structure (SMILES) | % of control remaining [%]
27 | c1csc(CSc2nnc3sc4ccccc4n23)c1 [CBK266291] | 149.633
39 | CCCNC(=O)Cn1nc(CC)n2c(cc3sccc32)c1=O [CBK284030] | 126.17
